Reference: paper PMC6410177
Results are given in words; binding and its absence hold for the method and conditions named. In cells and extracts the contact can be indirect. Some binding calls cover weakened binding; strength is not graded here. Tags and fused reporters may be left off the sequences shown.

The chains behind the UniProt entries cited, without tags or fusion partners.
UniProt Q76N89: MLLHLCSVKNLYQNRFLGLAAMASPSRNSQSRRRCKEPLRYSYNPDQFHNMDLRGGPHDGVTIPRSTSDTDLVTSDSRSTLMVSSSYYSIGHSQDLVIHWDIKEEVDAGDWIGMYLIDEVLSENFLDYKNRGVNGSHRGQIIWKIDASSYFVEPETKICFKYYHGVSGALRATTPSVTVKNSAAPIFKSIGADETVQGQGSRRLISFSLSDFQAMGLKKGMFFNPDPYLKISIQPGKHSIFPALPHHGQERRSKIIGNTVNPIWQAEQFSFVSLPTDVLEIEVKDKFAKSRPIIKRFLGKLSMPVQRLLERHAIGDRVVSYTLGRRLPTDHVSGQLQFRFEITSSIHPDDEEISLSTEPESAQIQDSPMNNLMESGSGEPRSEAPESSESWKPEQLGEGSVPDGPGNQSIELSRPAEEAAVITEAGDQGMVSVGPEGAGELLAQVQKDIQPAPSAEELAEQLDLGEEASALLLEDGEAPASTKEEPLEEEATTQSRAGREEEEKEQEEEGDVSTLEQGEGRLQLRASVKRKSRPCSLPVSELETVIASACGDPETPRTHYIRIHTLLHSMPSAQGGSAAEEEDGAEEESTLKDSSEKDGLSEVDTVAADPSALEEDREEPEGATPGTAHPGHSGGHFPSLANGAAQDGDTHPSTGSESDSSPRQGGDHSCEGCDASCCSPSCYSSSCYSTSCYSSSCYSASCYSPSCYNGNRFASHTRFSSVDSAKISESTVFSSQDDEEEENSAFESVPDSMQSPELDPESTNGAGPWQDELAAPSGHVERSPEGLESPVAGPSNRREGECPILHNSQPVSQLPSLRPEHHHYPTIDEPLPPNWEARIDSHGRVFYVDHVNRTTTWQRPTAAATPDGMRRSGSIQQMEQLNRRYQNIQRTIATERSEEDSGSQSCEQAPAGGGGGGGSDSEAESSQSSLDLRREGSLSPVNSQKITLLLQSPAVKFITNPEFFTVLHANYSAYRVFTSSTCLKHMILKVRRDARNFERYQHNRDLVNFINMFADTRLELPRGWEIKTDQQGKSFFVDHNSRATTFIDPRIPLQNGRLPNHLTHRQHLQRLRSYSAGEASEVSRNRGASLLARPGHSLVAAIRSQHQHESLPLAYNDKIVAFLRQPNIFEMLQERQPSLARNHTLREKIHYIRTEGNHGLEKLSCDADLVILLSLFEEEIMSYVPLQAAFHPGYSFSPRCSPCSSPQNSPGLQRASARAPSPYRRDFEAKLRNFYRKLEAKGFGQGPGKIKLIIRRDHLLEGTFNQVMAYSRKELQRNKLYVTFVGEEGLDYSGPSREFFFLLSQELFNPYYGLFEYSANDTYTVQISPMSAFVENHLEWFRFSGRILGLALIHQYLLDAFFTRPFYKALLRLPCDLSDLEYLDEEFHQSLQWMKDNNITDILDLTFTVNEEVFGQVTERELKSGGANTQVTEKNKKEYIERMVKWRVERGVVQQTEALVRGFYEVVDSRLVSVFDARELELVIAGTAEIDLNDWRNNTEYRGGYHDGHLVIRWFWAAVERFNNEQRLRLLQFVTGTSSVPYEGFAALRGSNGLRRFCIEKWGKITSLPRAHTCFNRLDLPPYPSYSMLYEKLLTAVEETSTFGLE

Molecular target: NEDL1, Myc-tagged (UniProt Q76N89)
Test: co-IP

Row | binding | Binder
1 | binds | angiomotin-like 1 (AMOTL1), Flag-tagged, full length (protein, UniProt Q8IY63 1-956) MWRAKLRRGTCEPAVKGSPSACYSPSSPVQVLEDSTYFSPDFQLYSGRHETSALTVEATSSIREKVVEDPLCNFHSPNFLRISEVEMRGSEDAAAGTVLQRLIQEQLRYGTPTENMNLLAIQHQATGSAGPAHPTNNFSSTENLTQEDPQMVYQSARQEPQGQEHQVDNTVMEKQVRSTQPQQNNEELPTYEEAKAQSQFFRGQQQQQQQQGAVGHGYYMAGGTSQKSRTEGRPTVNRANSGQAHKDEALKELKQGHVRSLSERIMQLSLERNGAKQHLPGSGNGKGFKVGGGPSPAQPAGKVLDPRGPPPEYPFKTKQMMSPVSKTQEHGLFYGDQHPGMLHEMVKPYPAPQPVRTDVAVLRYQPPPEYGVTSRPCQLPFPSTMQQHSPMSSQTSSASGPLHSVSLPLPLPMALGAPQPPPAASPSQQLGPDAFAIVERAQQMVEILTEENRVLHQELQGYYDNADKLHKFEKELQRISEAYESLVKSTTKRESLDKAMRNKLEGEIRRLHDFNRDLRDRLETANRQLSSREYEGHEDKAAEGHYASQNKEFLKEKEKLEMELAAVRTASEDHRRHIEILDQALSNAQARVIKLEEELREKQAYVEKVEKLQQALTQLQSACEKREQMERRLRTWLERELDALRTQQKHGNGQPANMPEYNAPALLELVREKEERILALEADMTKWEQKYLEESTIRHFAMNAAATAAAERDTTIINHSRNGSYGESSLEAHIWQEEEEVVQANRRCQDMEYTIKNLHAKIIEKDAMIKVLQQRSRKDAGKTDSSSLRPARSVPSIAAATGTHSRQTSLTSSQLAEEKKEEKTWKGSIGLLLGKEHHEHASAPLLPPPPTSALSSIASTTAASSAHAKTGSKDSSTQTDKSAELFWPSMASLPSRGRLSTTPAHSPVLKHPAAKGTAEKLENSPGHGKSPDHRGRVSSLLHKPEFPDGEMMEVLI
2 | no binding | AMOTL1 ∆L/PPXY (triple mutant: LPTY188 to AATY, PPEY310 and PPEY367 to AAEY) (protein, UniProt Q8IY63 1-956) MWRAKLRRGTCEPAVKGSPSACYSPSSPVQVLEDSTYFSPDFQLYSGRHETSALTVEATSSIREKVVEDPLCNFHSPNFLRISEVEMRGSEDAAAGTVLQRLIQEQLRYGTPTENMNLLAIQHQATGSAGPAHPTNNFSSTENLTQEDPQMVYQSARQEPQGQEHQVDNTVMEKQVRSTQPQQNNEEAATYEEAKAQSQFFRGQQQQQQQQGAVGHGYYMAGGTSQKSRTEGRPTVNRANSGQAHKDEALKELKQGHVRSLSERIMQLSLERNGAKQHLPGSGNGKGFKVGGGPSPAQPAGKVLDPRGPAAEYPFKTKQMMSPVSKTQEHGLFYGDQHPGMLHEMVKPYPAPQPVRTDVAVLRYQPAAEYGVTSRPCQLPFPSTMQQHSPMSSQTSSASGPLHSVSLPLPLPMALGAPQPPPAASPSQQLGPDAFAIVERAQQMVEILTEENRVLHQELQGYYDNADKLHKFEKELQRISEAYESLVKSTTKRESLDKAMRNKLEGEIRRLHDFNRDLRDRLETANRQLSSREYEGHEDKAAEGHYASQNKEFLKEKEKLEMELAAVRTASEDHRRHIEILDQALSNAQARVIKLEEELREKQAYVEKVEKLQQALTQLQSACEKREQMERRLRTWLERELDALRTQQKHGNGQPANMPEYNAPALLELVREKEERILALEADMTKWEQKYLEESTIRHFAMNAAATAAAERDTTIINHSRNGSYGESSLEAHIWQEEEEVVQANRRCQDMEYTIKNLHAKIIEKDAMIKVLQQRSRKDAGKTDSSSLRPARSVPSIAAATGTHSRQTSLTSSQLAEEKKEEKTWKGSIGLLLGKEHHEHASAPLLPPPPTSALSSIASTTAASSAHAKTGSKDSSTQTDKSAELFWPSMASLPSRGRLSTTPAHSPVLKHPAAKGTAEKLENSPGHGKSPDHRGRVSSLLHKPEFPDGEMMEVLI
